No constants are given. Whether binding was seen depends on the method and setting. Binding seen in cells or lysates may run through a third protein. Some entries that bind do so weakly or less than the wild type.
Target: cyclin-dependent protein kinase 5 (Cdk5) (rat (endogenous in primary neurons)) (UniProt Q03114)
Assay: co-IP; in neurons; RIPA lysate with protease inhibitors, antibody overnight at 4°C, protein G plus/protein A-agarose 3 h at 4°C, washed thrice, immunoblot; which protein was precipitated is not told

binding: binds
B1: Chromosome 9 open reading frame 72 (C9orf72) protein (protein, UniProt Q66HC3 1-481)
chain: MSTICPPPSPAVAKTEIALSGESPLLAATFAYWDNILGPRVRHIWAPKTDQVLLSDGEITFLANHTLNGEILRNAESGAIDVKFFVLSEKGVIIVSLIFDGNWNGDRSTYGLSIILPQTELSFYLPLHRVCVDRLTHIIRKGRIWMHKERQENVQKIVLEGTERMEDQGQSIIPMLTGEVIPVMELLASMRSHSVPEDLDIADTVLNDDDIGDSCHEGFLLNAISSHLQTCGCSVVVGSSAEKVNKIVRTLCLFLTPAERKCSRLCEAESSFKYESGLFVQGLLKDATGSFVLPFRQVMYAPYPTTHIDVDVNTVKQMPPCHEHIYNQRRYMRSELTAFWRATSEEDMAQDTIIYTDESFTPDLNIFQDVLHRDTLVKAFLDQVFHLKPGLSLRSTFLAQFLLILHRKALTLIKYIEDDTQKGKKPFKSLRNLKIDLDLTAEGDLNIIMALAEKIKPGLHSFIFGRPFYTSVQERDVLMTF

Source: article PMC10651984
